According to paper PMC5643397:
These are yes or no findings as the source states them, for the method shown. In cells and extracts the contact can be indirect. Some binding calls cover weakened binding; strength is not graded here.

Amino acid sequences for entries named in this document (tags omitted). A change or cut given only in a name is not applied to a line headed by its entry.
UniProt P55263: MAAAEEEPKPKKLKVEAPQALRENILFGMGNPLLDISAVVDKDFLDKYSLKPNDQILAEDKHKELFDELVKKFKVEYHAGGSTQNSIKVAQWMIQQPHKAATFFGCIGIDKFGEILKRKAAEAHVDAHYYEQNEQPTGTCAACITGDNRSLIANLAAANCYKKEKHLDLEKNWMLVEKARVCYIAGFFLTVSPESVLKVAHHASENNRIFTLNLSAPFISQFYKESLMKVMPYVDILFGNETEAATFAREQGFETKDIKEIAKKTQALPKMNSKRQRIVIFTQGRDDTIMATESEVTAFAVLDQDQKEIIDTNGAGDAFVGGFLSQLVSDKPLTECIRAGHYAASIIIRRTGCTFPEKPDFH
UniProt P23526: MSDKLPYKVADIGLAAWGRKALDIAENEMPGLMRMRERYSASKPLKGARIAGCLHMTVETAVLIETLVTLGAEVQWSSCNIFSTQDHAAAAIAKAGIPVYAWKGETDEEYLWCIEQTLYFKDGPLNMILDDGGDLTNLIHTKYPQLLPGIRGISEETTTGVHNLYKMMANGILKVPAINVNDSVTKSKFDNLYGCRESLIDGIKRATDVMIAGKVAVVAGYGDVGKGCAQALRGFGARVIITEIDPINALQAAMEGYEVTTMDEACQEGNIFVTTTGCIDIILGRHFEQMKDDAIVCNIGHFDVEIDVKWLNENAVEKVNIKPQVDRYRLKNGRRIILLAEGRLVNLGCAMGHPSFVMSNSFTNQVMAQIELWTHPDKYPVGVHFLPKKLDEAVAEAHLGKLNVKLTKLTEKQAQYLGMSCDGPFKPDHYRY

How the values were obtained:
[1] = biological target: adenosine kinase (ADK), endogenous in HUVECs (human (endogenous in HUVECs)) (UniProt P55263); assay: co-IP; lysate (RIPA buffer) of HUVECs overexpressing His-tagged SAHH; IP with mouse anti-His antibody or, reciprocally, goat anti-ADK antibody on protein G-sepharose, overnight; washes with 0.05 M HEPES pH 7.1, 0.15% Triton X-100, 0.15 M NaCl; immunoblot with rabbit anti-ADK and rabbit anti-SAHH
[2] = biological target: His-fused human S-adenosylhomocysteine hydrolase (SAHH), overexpressed in HUVECs (human) (UniProt P23526); assay: as above
[3] = biological target: adenosine kinase (ADK), endogenous in HUVECs (human (endogenous in HUVECs)) (UniProt P55263); assay: co-IP; lysate (RIPA buffer) of non-transfected HUVECs treated with vehicle or TNF-α (10 ng/ml for 12 h); IP with goat anti-ADK antibody on protein G-sepharose; immunoblot with rabbit anti-SAHH and rabbit anti-ADK

With “His-fused human S-adenosylhomocysteine hydrolase (SAHH), overexpressed in HUVECs (from UniProt P23526-1 1-432) (enzyme)” the binding [1] was “binds”.

In the case of “adenosine kinase (ADK), endogenous in HUVECs (from UniProt P55263 1-362) (enzyme)”, the binding [2] was “binds”.

“S-adenosylhomocysteine hydrolase (SAHH), endogenous in HUVECs (from UniProt P23526 1-432) (enzyme)” was tested, and the binding [3] was “binds”.
